These are yes or no findings as the source states them, for the method shown. Some entries that bind do so weakly or less than the wild type.
Molecular target: CD19-antigen (human) (UniProt P15391)
Assay: flow cytometry, CD19 antigen staining of CAR-expressing UCART cells

Protein sequences, listed by entry. Tags and fused reporters are not part of them. Residues count along the entry.
UniProt P15391, residues 20-291: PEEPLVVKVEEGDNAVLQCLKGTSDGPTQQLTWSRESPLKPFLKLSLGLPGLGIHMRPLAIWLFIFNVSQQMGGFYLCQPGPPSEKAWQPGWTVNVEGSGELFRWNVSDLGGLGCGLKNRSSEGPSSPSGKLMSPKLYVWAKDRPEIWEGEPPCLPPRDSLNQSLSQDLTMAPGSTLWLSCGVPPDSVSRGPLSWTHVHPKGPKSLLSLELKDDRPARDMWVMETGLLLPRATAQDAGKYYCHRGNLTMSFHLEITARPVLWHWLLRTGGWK

binding: binds
B1: Anti-CD19 scFv on the CAR structure of CD19-UCART containing various third signal structures (scFv, not shown: small tags and cut ends)
scFv: QAVLTQPPSVSEAPRQRVTISCSGSSSNIGNNAVSWYQQLPGKAPKLLIYYDDLLPSGVSDRFSGSKSGTSASLAISGLQSEDEADYYCAAWDDSLNGWVFGGGTKVTVLGGGGGSGGGGSGGGGSEVQLVQSGAEVKKPGESLKISCKGSGYSFTSYWIGWVRQMPGKGLEWMGIIYPGDSDTRYSPSFQGQVTISADKSISTAYLQWSSLKASDTAMYYCARLSYSWSSWYWDFWGQGTLVTVSS
